Measurements from the supplement of paper PMC10382679.
Single values of this set are uncertain.

B1: Rpb7; numbered along this chain (parent)
chain: MFFIKDLSLNITLHPSFFGPRMKQYLKTKLLEEVEGSCTGKFGYILCVLDYDNIDIQRGRILPTDGSAEFNVKYRAVVFKPFKGEVVDGTVVSCSQHGFEVQVGPMKVFVTKHLMPQDLTFNAGSNPPSYQSSEDVITIKSRIRVKIEGCISQVSSIHAIGSIKEDYLGAI

How the values were obtained:
[1] = variants of: B1; test: log2 fold change of mutant abundance, UV-irradiated vs unirradiated; higher = more UV resistant (enriched after UV); settings: with Saccharomyces cerevisiae rad7Δ rad26Δ; UV dose (J/m2): 10; genetic background: rad7Δ rad26Δ rpb7Δ + plasmid RPB7 library; outgrowth: 10 cell divisions
[2] = variants of: B1; test: NOISeq theta enrichment statistic, UV-irradiated vs unirradiated (dimensionless); higher = more UV resistant (enriched after UV); settings: with Saccharomyces cerevisiae rad7Δ rad26Δ; UV dose (J/m2): 10; genetic background: rad7Δ rad26Δ rpb7Δ + plasmid RPB7 library; outgrowth: 10 cell divisions

| Variant | log2 fold change of mutant abundance [1] | NOISeq theta enrichment statistic [2] |
| --- | --- | --- |
| L31T | -0.753 | -0.415 |
| L31V | 0.222 | 0.319 |
| L31W | -0.00348 | -0.00568 |
| L31Y | 0.112 | 0.0569 |
| E32A | 0.0488 | 0.0709 |
| E32D | -0.00119 | -0.00593 |
| E32G | -0.00789 | -0.0201 |
| E32K | -0.202 | -0.515 |
| E32L | -0.954 | -0.605 |
| E32Q | -0.47 | -0.496 |
| E32R | -0.395 | -0.207 |
| E32S | 0.195 | 0.115 |
| E32V | -0.0395 | -0.117 |
| E32Y | -0.456 | -0.262 |
| E33A | -0.212 | -0.23 |
| E33D | 0.0254 | 0.104 |
| E33G | -0.169 | -0.346 |
| E33K | -0.0267 | -0.0591 |
| E33Q | 0.217 | 0.185 |
| E33R | -0.0372 | -0.0389 |
| E33S | -0.212 | -0.144 |
| E33T | 2.54 | 1.33 |
| E33V | -0.134 | -0.299 |
| E33Y | 0.127 | 0.126 |

| Variant | log2 fold change of mutant abundance [1] | NOISeq theta enrichment statistic [2] |
| --- | --- | --- |
| V34A | 0.0752 | 0.307 |
| V34D | -0.176 | -0.209 |
| V34E | 0.441 | 0.295 |
| V34F | 0.136 | 0.261 |
| V34G | 0.0248 | 0.0288 |
| V34I | 0.0486 | 0.109 |
| V34L | 0.0533 | 0.0822 |
| V34S | -0.00293 | -0.00261 |
| E35A | 0.223 | 0.284 |
| E35D | -0.0457 | -0.13 |
| E35G | -0.096 | -0.186 |
| E35I | -0.566 | -0.276 |
| E35K | -0.0809 | -0.152 |
| E35L | -0.461 | -0.223 |
| E35Q | 0.11 | 0.116 |
| E35R | -0.924 | -0.829 |
| E35S | -0.306 | -0.209 |
| E35V | 0.0618 | 0.286 |
| E35Y | -0.324 | -0.222 |
| G36A | -0.207 | -0.218 |
| G36C | -0.0422 | -0.0952 |
| G36D | -0.157 | -0.256 |
| G36E | 1.55 | 0.668 |
| G36F | -0.0212 | -0.0172 |

| Variant | log2 fold change of mutant abundance [1] | NOISeq theta enrichment statistic [2] |
| --- | --- | --- |
| G36R | 0.0056 | 0.00516 |
| G36S | -0.0657 | -0.116 |
| G36V | -0.000602 | -0.00127 |
| S37A | 0.086 | 0.144 |
| S37C | -0.128 | -0.111 |
| S37F | -0.0624 | -0.0345 |
| S37K | 0.336 | 0.217 |
| S37L | 0.101 | 0.334 |
| S37M | -0.184 | -0.0783 |
| S37P | -0.019 | -0.0354 |
| S37Q | -0.692 | -0.437 |
| S37R | -0.149 | -0.173 |
| S37T | -0.245 | -0.939 |
| S37V | -0.0673 | -0.0329 |
| S37W | -0.0231 | -0.0308 |
| C38F | -0.096 | -0.145 |
| C38G | 0.0197 | 0.0356 |
| C38H | 2.51 | 0.834 |
| C38L | -0.341 | -0.267 |
| C38R | 0.195 | 0.574 |
| C38S | 0.106 | 0.47 |
| C38V | -0.0129 | -0.0145 |
| C38W | -0.309 | -0.554 |
| C38Y | -0.421 | -0.976 |

Reprinted at random: 6 entries already listed, in no set order.

| Variant | log2 fold change of mutant abundance [1] | NOISeq theta enrichment statistic [2] |
| --- | --- | --- |
| C38H | 2.51 | 0.834 |
| C38R | 0.195 | 0.574 |
| S37V | -0.0673 | -0.0329 |
| S37F | -0.0624 | -0.0345 |
| C38L | -0.341 | -0.267 |
| C38V | -0.0129 | -0.0145 |

Continued:

| Variant | log2 fold change of mutant abundance [1] | NOISeq theta enrichment statistic [2] |
| --- | --- | --- |
| T39A | 0.0247 | 0.0994 |
| T39E | 1.19 | 0.502 |
| T39I | 0.545 | 0.426 |
| T39K | 0.307 | 0.704 |
| T39L | -0.345 | -0.279 |
| T39M | 0.206 | 0.585 |
| T39P | -0.1 | -0.138 |
| T39R | 0.179 | 0.355 |
| T39S | 0.0374 | 0.17 |
| T39V | 0.745 | 0.36 |
| T39Y | 0.33 | 0.164 |
| G40A | -0.414 | -0.542 |
| G40C | -0.42 | -1.02 |
| G40D | -0.872 | -0.993 |
| G40F | -0.217 | -0.18 |
| G40R | -0.679 | -0.606 |
| G40S | -0.565 | -1.01 |
| G40V | -0.175 | -0.325 |
| K41A | 0.795 | 0.575 |
| K41D | -0.227 | -0.0912 |
| K41E | -0.0413 | -0.165 |
| K41G | 1.29 | 0.654 |
| K41H | -0.309 | -0.266 |
| K41I | 0.234 | 0.587 |

| Variant | log2 fold change of mutant abundance [1] | NOISeq theta enrichment statistic [2] |
| --- | --- | --- |
| K41L | 0.392 | 0.219 |
| K41M | 0.0751 | 0.0325 |
| K41N | -0.148 | -0.575 |
| K41Q | 0.283 | 0.34 |
| K41R | 0.369 | 1.21 |
| K41S | -0.502 | -0.3 |
| K41T | 0.331 | 0.521 |
| K41Y | 0.123 | 0.0683 |
| F42C | 0.0658 | 0.112 |
| F42H | -0.623 | -0.29 |
| F42I | 0.272 | 0.922 |
| F42L | 0.179 | 0.851 |
| F42N | -0.626 | -0.254 |
| F42S | 0.308 | 1.38 |
| F42T | -0.0109 | -0.00867 |
| F42V | 0.125 | 0.19 |
| F42Y | 0.0701 | 0.462 |
| G43A | -0.444 | -0.352 |
| G43C | -0.155 | -0.111 |
| G43D | -0.163 | -0.184 |
